Drawing on the supplement of paper PMC6289059, this text covers ATP level for 50 compounds.

The other results are listed elsewhere or left out. Repeats are few or missing, and single values can be far off.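 The cells are hepatocyte-like cells grown from human stem cells in which the DGUOK gene was disrupted by CRISPR, a model of liver mtDNA depletion syndrome. Each well's ATP signal was scored against the other wells on its plate, and a drug counted as a primary hit when its score was 3 or higher.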

The subject of the test is DGUOK Δ14/Δ5 iPSC-derived hepatocyte-like cells (SV20). Kind of test: ATP level (CellTiter-Glo luminescence) Z score relative to plate distribution, under 2-DG glycolysis block; higher = more cellular ATP (rescue of mitochondrial ATP production). To be noted: 5 µM; treatment time: day 15 to day 20 of differentiation (5 days); 2-deoxy-D-glucose: 20 mM for 24 h before assay. On the technique in general: ATP-based viability assays read luminescence as a measure of living cells.
`COc1cc2c(cc1OC)C1(O)C(=O)c3ccc(O)c(C(=O)O)c3OC1CO2` (stereo not given): the ATP level is inactive: -0.287.
With `CCOc1cc(CC(=O)N[C@@H](CC(C)C)c2ccccc2N2CCCCC2)ccc1C(=O)O`, the ATP level is active: 6.88.
Turning to `C#CCCCCCCCCCCCC(O)CC(O)COC(C)=O` (stereo not given), the ATP level was inactive: -1.26.
For `COc1ncnc(NS(=O)(=O)c2ccc(N)cc2)c1OC` the value was inactive: 2.63; for `CC1(C)C(=O)C=CC2(C)C1C=CC1(C)C2CCC2(C)C(c3ccoc3)OC(=O)C3OC312` (stereo not given), inactive: -2.14; for `CC(=O)OCC(=O)[C@@]1(O)[C@H](C)C[C@H]2[C@@H]3CCC4=CC(=O)C=C[C@]4(C)[C@@]3(F)[C@@H](O)C[C@@]21C`, inactive: 2.31.
In the case of `CC1(C)CCC[C@]2(C)[C@H]3CC(=O)O[C@]3(C)CC[C@@H]12`, the ATP level was inactive: 1.28.
For `COc1ccc(C(=O)c2ccccc2)c(O)c1` the value was inactive: -0.447.
As for `COc1c(N2C[C@@H]3CCCN[C@@H]3C2)c(F)cc2c(=O)c(C(=O)O)cn(C3CC3)c12`, the ATP level is inactive: -3.21.
With `COc1ccc(C(=O)CC(=O)c2ccc(C(C)(C)C)cc2)cc1`, the ATP level is inactive: 1.51.
As to `NCCSSCCN`, the ATP level is inactive: 0.423.
Regarding `CC1(C)C(=O)[C@H]2C[C@]3(O)C4=CC(=O)O[C@@H](c5ccoc5)[C@@]4(C)CCC3[C@](C)(C2=O)[C@H]1CC(=O)O` (stereo not given in full), the ATP level was inactive: 1.59.
For `Nc1nc2c(ncn2COCCO)c(=O)[nH]1` the value was inactive: 1.84.
For the compound `O=c1cc(-c2ccccc2O)oc2cc(O)ccc12`, the ATP level was inactive: -0.256.
`CC(C)NCC(O)c1ccc(O)c(O)c1` (stereo not given): the ATP level is inactive: -0.458.
The value for `COc1ccc2[nH]c([S@@+]([O-])Cc3ncc(C)c(OC)c3C)nc2c1` was inactive: 1.85; that for `CCCCCC(=O)O[C@]1(C(C)=O)CC[C@H]2[C@@H]3CCC4=CC(=O)CC[C@]4(C)[C@H]3CC[C@@]21C` was inactive: 0.283; that for `O=C(O[C@@H]1Cc2c(O)cc(O)cc2O[C@@H]1c1ccc(O)c(O)c1)c1cc(O)c(O)c(O)c1` was inactive: 1.89.
For `OC(c1cc(C(F)(F)F)nc2c(C(F)(F)F)cccc12)C1CCCCN1` (stereo not given), the ATP level is inactive: -18.5.
In the case of `CNCCCC12CCC(c3ccccc31)c1ccccc12`, the ATP level is inactive: -1.33.
Consider `CC[C@H]1OC(=O)C[C@@H](O)[C@H](C)[C@@H](O[C@@H]2O[C@H](C)[C@@H](O)[C@H](N(C)C)[C@H]2O)[C@@H](CCN2C[C@H](C)C[C@H](C)C2)C[C@@H](C)C(=O)/C=C/C(C)=C/[C@@H]1CO[C@@H]1O[C@H](C)[C@@H](O)[C@@H](OC)[C@H]1OC`, for which the ATP level is inactive: -1.03.
For `C=CC1(C)CC(=O)C2(O)C(C)(O1)C(O)C(O)C1C(C)(C)CCC(O)C12C` (stereo not given) the value was inactive: 2.4.
For `Cc1coc2c1C(=O)C(=O)c1c-2ccc2c1CCCC2(C)C` the value was inactive: -4.63; for `C[C@]12C=CC(=O)C=C1CC[C@H]1[C@@H]3C[C@@H](O)[C@](O)(C(=O)CO)[C@@]3(C)C[C@H](O)[C@@]12F`, inactive: 1.51.
For `CC1(C)O[C@@H]2C[C@H]3[C@@H]4CCC5=CC(=O)CC[C@]5(C)[C@@]4(F)[C@@H](O)C[C@]3(C)[C@]2(C(=O)CCl)O1` the value was active: 3.31.
Turning to `CCN(CC)C(=O)/C(C#N)=C/c1cc(O)c(O)c([N+](=O)[O-])c1`, the ATP level is inactive: 0.445.
In the case of `C[C@@H]1O[C@@H](OC[C@H]2O[C@@H](Oc3c(-c4ccc(OCCO)c(OCCO)c4)oc4cc(OCCO)cc(O)c4c3=O)[C@H](O)[C@@H](O)[C@@H]2O)[C@H](O)[C@H](O)[C@H]1O`, the ATP level was inactive: -8.17.
The value for `C[C@@H](O)[C@H]1C(=O)N2C(C(=O)O)=C(S[C@@H]3CN[C@H](C(=O)N(C)C)C3)[C@H](C)[C@H]12` was inactive: 2.07; that for `O=C(O)[C@H](O)[C@@H](O)[C@H](O[C@@H]1O[C@H](CO)[C@H](O)[C@H](O)[C@H]1O)[C@H](O)CO` was inactive: 1.7.
The value for `COc1ccc(C(=O)O)c(O)c1OC` was inactive: 1.6.
For `Cc1cc(C)cc(OCC2CNC(=O)O2)c1` (stereo not given) the value was inactive: -1.47; for `CC(=O)O[C@H]1C[C@@H]2CC[C@@H]3[C@H](CC[C@@]4(C)[C@H]3C[C@H]([N+]3(C)CCCCC3)[C@@H]4OC(C)=O)[C@@]2(C)C[C@@H]1N1CCCCC1`, inactive: 0.952.
As for `C=Cc1c(C)c2[n-]c1=CC1=NC(=CC3=C(C)C(=C([O-])[O-])C(=N3)C(CC(=O)[O-])=C3N=C(C=2)C(C)C3CCC(=O)[O-])C(CC)=C1C.[Cu+2].[Na+].[Na+].[Na+]` (stereo not given), the ATP level is active: 3.2.
The value for `C[C@H]1O[C@@H](n2cc(F)c(=O)[nH]c2=O)[C@H](O)[C@@H]1O` was inactive: 1.6; that for `O=c1c(-c2ccc(O)cc2)coc2cc(O)ccc12` was inactive: -0.777.
`CC1(C)CC[C@]2(C(=O)O)CC[C@]3(C)C(=CC[C@@H]4[C@@]5(C)CC[C@H](O)C(C)(C)[C@@H]5CC[C@]43C)[C@@H]2C1`: the ATP level was inactive: -2.75.
The value for `CN1C(=O)OC(C)(C)C1=O` was inactive: 0.885; that for `CC(=O)CCCCn1c(=O)c2c(ncn2C)n(C)c1=O` was inactive: 2.79.
The value for `CN(C/C=C/c1ccccc1)Cc1cccc2ccccc12` was inactive: 0.332; that for `O=C(CO)C(O)C(O)C(O)CO` (stereo not given) was inactive: -1.67; that for `C[C@@H]1CC[C@@]2(OC1)O[C@H]1C[C@H]3[C@@H]4CC[C@H]5C[C@@H](O)CC[C@]5(C)[C@H]4CC(=O)[C@]3(C)[C@H]1[C@@H]2C` was inactive: -0.3.
The value for `NCCNCCNCCN` was inactive: 1.43; that for `O=C(CCc1ccc(O)cc1)c1c(O)cc(O)cc1O[C@@H]1OC(CO)[C@@H](O)[C@@H](O)C1O` (stereo not given in full) was inactive: 1.96; that for `COc1c(C)c2c(c(O)c1C/C=C(\C)CCC(=O)O)C(=O)OC2` was inactive: -0.917.
For `O=C(Oc1ccccc1C(=O)O)c1ccccc1O`, the ATP level was inactive: -0.736.
For `O=C(O)c1ccc(S(=O)(=O)N(Cl)Cl)cc1` the value was inactive: 1.31.
As to `CCCCCNC(=N)N/N=C/c1c[nH]c2ccc(OC)cc12`, the ATP level is inactive: -2.2.
The value for `CCN1CCCC(OC(=O)C(c2ccccc2)c2ccccc2)C1` (stereo not given) was inactive: 0.523; that for `Nc1ccc(C(=O)O)cc1` was inactive: 0.165.
For `CO[C@H]1C[C@H](O[C@@H]2/C(C)=C\C[C@@H]3C[C@@H](C[C@]4(C=C[C@H](C)[C@@H](C(C)C)O4)O3)OC(=O)[C@@H]3C=C(C)[C@@H](O)[C@H]4OC/C(=C/C=C\[C@@H]2C)[C@]43O)O[C@@H](C)[C@H]1O[C@H]1C[C@@H](OC)[C@H](NC(C)=O)[C@H](C)O1` the value was inactive: -9.6.
